This assay deals with 3xFLAG-Loxl1 (lysyl oxidase-like 1) (UniProt Q08397). Put plainly: co-IP; FLAG-M2 affinity agarose on cell lysates in RIPA buffer, 0.5 mg/mL lysate, 3 hours at 4°C, eluted with 3xFLAG peptides; with or without co-expressed lamR.

Protein sequences, listed by entry. Tags and fused reporters are not part of them. Lines headed by an entry give the natural chain unless they say otherwise; changes in a name come on top.
UniProt Q08397: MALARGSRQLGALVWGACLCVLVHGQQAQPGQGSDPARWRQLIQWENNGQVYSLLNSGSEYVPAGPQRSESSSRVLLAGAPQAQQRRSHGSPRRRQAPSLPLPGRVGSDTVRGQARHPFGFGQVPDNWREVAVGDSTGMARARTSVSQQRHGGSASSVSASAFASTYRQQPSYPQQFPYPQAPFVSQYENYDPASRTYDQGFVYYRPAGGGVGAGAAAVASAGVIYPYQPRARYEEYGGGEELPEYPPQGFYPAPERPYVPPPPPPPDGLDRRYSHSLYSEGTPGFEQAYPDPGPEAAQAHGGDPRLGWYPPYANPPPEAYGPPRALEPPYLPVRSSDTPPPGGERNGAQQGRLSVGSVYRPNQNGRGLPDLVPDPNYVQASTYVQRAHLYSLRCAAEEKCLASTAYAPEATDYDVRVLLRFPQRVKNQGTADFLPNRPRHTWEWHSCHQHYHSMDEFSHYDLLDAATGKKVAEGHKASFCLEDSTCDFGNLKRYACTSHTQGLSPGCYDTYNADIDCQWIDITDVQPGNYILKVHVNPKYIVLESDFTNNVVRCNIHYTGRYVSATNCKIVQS

These are yes or no findings as the source states them, for the method shown. Binding seen in cells or lysates may run through a third protein. Binding calls can cover weak binding; strength is not graded here. Sequences can lack the tags named with a protein.

B1: EGFP-SNAI3 (Snail-like transcription factor) (protein, UniProt Q3KNW1 1-292)
chain: MPRSFLVKTHSSHRVPNYRRLETQREINGACSACGGLVVPLLPRDKEAPSVPGDLPQPWDRSSAVACISLPLLPRIEEALGASGLDALEVSEVDPRASRAAIVPLKDSLNHLNLPPLLVLPTRWSPTLGPDRHGAPEKLLGAERMPRAPGGFECFHCHKPYHTLAGLARHRQLHCHLQVGRVFTCKYCDKEYTSLGALKMHIRTHTLPCTCKICGKAFSRPWLLQGHVRTHTGEKPYACSHCSRAFADRSNLRAHLQTHSDAKKYRCRRCTKTFSRMSLLARHEESGCCPGP
Take B1: the binding entry was “binds”.

(Values after article PMC8842676.)
